Test results reported in PubChem BioAssay AID2685 (National Center for Advancing Translational Sciences (NCATS), 2010).
Values joined by “and” are separate entries in the source; they are usually repeats but may differ in a detail not shown here. Equal values may be shown once. The list shows a part of the results. The main result of the screen is listed elsewhere. These columns were measured beside it and carry no call. Compounds called inactive in the main read-out are mostly missing here. Words in brackets tell the shape of the fitted curve; partial curves, single points and poor fits give uncertain potencies.

Assay: qHTS Assay for Lipid Storage Modulators in Drosophila S3 Cells;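 as to cell number change: cells counted by Cell Tracker Red CMTPX staining in the red channel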
Conditions: BODIPY lipid droplet fluorescence, 18-24 h; for cell number change: measured here: cell count max response, cells fed with added oleic acid
Summary of the method: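 Drosophila S3 cells loaded with oleic acid (400 uM, as added) and compounds at several concentrations; lipid droplets imaged by 488-nm laser-scanning cytometry, 500–530 nm intensity and object ratio to cell channel. Percent activity normalized to 20 uM Triacsin C.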

[1] = measured here: lipid fluorescence (Fed channel) AC50, cells fed with added oleic acid
[2] = measured here: cell number channel AC50, cells fed with added oleic acid

SMILES | cell number change | AC50 [1] | AC50 [2]
O=C(CCNS(=O)(=O)c1ccccc1)N1CCCC1 | 28.3% | 32.6 µM [rising, partial curve, poor fit] | –
O=C(COC(=O)Cc1ccc(F)cc1)NC1CCCCC1 | 1.75% | 0.00461 µM [falling, full curve, poor fit] | –
COc1ccc(-c2cc(=O)oc3cc(OC(=O)C4CCCCC4)ccc23)cc1 | 10.8% | 0.082 µM [falling, partial curve, poor fit] | –
COc1ccc(F)cc1S(=O)(=O)n1cc(C)nc1-c1ccccc1 | 2.23% | 0.00411 µM [falling, full curve, poor fit] | –
Cc1ccc(-c2nnc(SCC(=O)N/N=C/c3ccc(C(=O)O)cc3)n2C2CCCCC2)cc1 | 8.06% | 0.00731 µM [rising, full curve, poor fit] | –
Cc1ccc(S(=O)(=O)NC(C)(C)CSc2ncccn2)cc1 | -23.5% | 29.1 µM [falling, partial curve, poor fit] | –
Cc1nc2ccc(NS(=O)(=O)c3ccccc3Cl)cc2s1 | -20.6% | 4.61 µM [rising, single point] | –
Cc1nnc(SCC(=O)n2c3c(c4ccccc42)CCCC3)s1 | 34.2% | 0.291 µM [rising, partial curve] | 1.16 µM [rising, full curve]
C/C=C/c1ccc(OCCCCN(C)Cc2ccccc2)c(OC)c1 | 19.6% | – | –
CSc1ccc(CN2CCN(C(=O)CC(C)C)CC2)cc1 | 13.5% | 0.116 µM [falling, full curve] | 1.84 µM [rising, partial curve, poor fit]
CCCNC(=S)N1CCCC(c2nc3ccccc3[nH]2)C1 (stereo not given) | 56.8% | 6.51 µM [falling, single point] | 10.3 µM [rising, partial curve]
CC(C)c1ccc(/C=N/NC(=O)CCNC(=O)c2ccccc2)cc1 | 2.5% | 0.461 µM [falling, full curve] | –
COc1ccc(C(=O)n2nc(C)cc2C)cc1OC | -16.6% | – | –
CCOC(=O)Cn1c(=O)oc2cc(S(=O)(=O)NC3CCCCC3)ccc21 | -7.78% | – | –
O=C(Nc1ccccc1C(=O)Nc1cccnc1)c1ccccc1 | 78.2% | 0.82 µM [rising, partial curve] | 10.3 µM [rising, partial curve]
CCCn1c(N)cc(=O)n(C)c1=O | 30.5% | – | –
CC(=O)N1CCN(CCS(=O)(=O)c2ccc(Br)cc2)CC1 | 7.71% | 0.731 µM [falling, partial curve, poor fit] | –
O=C(O)c1cc(S(=O)(=O)N2CCCCCC2)c(Cl)cc1Cl | -0.0641% | 0.13 µM [falling, full curve, poor fit] | –
CCC(C)NC(=O)CCn1c(-c2ccc(F)cc2)cc(C(C)=O)c1C (stereo not given) | 36.9% | – | –
N#Cc1c(C(F)(F)F)cc(=O)n2c1[nH]c1ccccc12 | -19.5% | 0.58 µM [rising, single point] | –

SMILES | cell number change | AC50 [1] | AC50 [2]
Cc1csc2nc(COC(=O)CNC(=O)c3ccc(Cl)cc3)cc(=O)n12 | 3.51% | 0.82 µM [falling, full curve] | 0.00461 µM [falling, full curve, poor fit]
CC1(C)NC(=O)N(CC(=O)NNC(=O)c2ccccc2F)C1=O | 14.9% | 0.146 µM [falling, full curve, poor fit] | 0.146 µM [falling, full curve, poor fit]
Cc1c(CN2CCC(n3nccc3NC(=O)C3CCOC3)CC2)[nH]c2ccccc12 (stereo not given) | 33.8% | 0.731 µM [rising, single point] | 0.0731 µM [rising, full curve, poor fit]
CC(SCc1ccccc1)C(=O)NC1CCCC1 (stereo not given) | -16.2% | – | –
COc1cc2c(cc1OC)-c1nnc(-c3cccs3)n1C1(CCCC1)C2 | 168% | – | 29.1 µM [rising, single point]
Cc1ccc(O)c(CNc2nc3ccccc3[nH]2)c1 | -13.3% | 1.46 µM [falling, partial curve] | –
O=C(c1ccc(Oc2ccccc2)cc1)C1CCCN(C(=O)c2cnccn2)C1 (stereo not given) | -0.479% | 20.6 µM [falling, single point] | –
CCN(CCNC(=O)C1CCN(Cc2nc(-c3ccc(Cl)cc3)oc2C)CC1)c1ccccc1 | -58.5% | 29.1 µM [falling, single point] | 25.9 µM [falling, single point]
CC(C)CCN1CCN(Cc2ccc(C(F)(F)F)cc2)CC1CCO (stereo not given) | 6.4% | 23.1 µM [rising, single point] | –
COc1ccc(NC(=O)COc2cc(C)cc(C)c2)cc1S(=O)(=O)N1CCCCC1 | 20.8% | – | –
Cc1nn(C)c(Oc2ccc(Cl)cc2)c1C=O | 156% | 25.9 µM [rising, partial curve] | 0.00411 µM [rising, full curve, poor fit]
COc1ccc(C(=O)OCC(=O)N2CCCC2=O)c(OC)c1 | – | – | 0.58 µM [falling, single point]
CN(C)C=NC(=O)c1cc(C(=O)c2ccc(C(C)(C)C)cc2)c[nH]1 | 2.76% | 0.58 µM [falling, single point] | –
Cc1ccc2[nH]c3c(c2c1)CCCC3NC(=O)CCl (stereo not given) | -25.5% | 29.1 µM [falling, single point] | –
CC(=O)c1ccc(N2CCN(C(=O)c3ccc(Cl)c(S(=O)(=O)NC4CC4)c3)CC2)c(F)c1 | -32% | 4.11 µM [falling, single point] | 16.4 µM [falling, partial curve, poor fit]
COc1ccc(C)cc1NC(=O)CN1c2cccc3cccc(c23)S1(=O)=O | -43.4% | – | 11.6 µM [falling, partial curve, poor fit]
CCOCCCNC(=O)Cn1cnc2c(cnn2-c2ccc(F)cc2)c1=O | 11.1% | 10.3 µM [rising, partial curve] | –
Cc1cccc(NC(=O)CC23CC4CC(C2)CC(n2nnc(C)n2)(C4)C3)c1 | -12.7% | 0.291 µM [falling, full curve, poor fit] | –
Fc1ccc(Br)cc1C1C=C(c2ccc(Br)s2)Nc2ncnn21 (stereo not given) | 76% | 0.13 µM [rising, full curve, poor fit] | 29.1 µM [rising, single point]
Cn1c(CNC(=O)CCNC(=O)c2ccc(Br)cc2)cc(=O)n(C)c1=O | -3.54% | 0.58 µM [falling, single point] | –

In another format: two of the compounds above.

| SMILES | cell number change | AC50 [1] | AC50 [2] |
| --- | --- | --- | --- |
| COc1ccc(NC(=O)COc2cc(C)cc(C)c2)cc1S(=O)(=O)N1CCCCC1 | 20.8% | – | – |
| Cc1nn(C)c(Oc2ccc(Cl)cc2)c1C=O | 156% | 25.9 µM [rising, partial curve] | 0.00411 µM [rising, full curve, poor fit] |

The results go on:

SMILES | cell number change | AC50 [1] | AC50 [2]
Cc1ccccc1Nc1ncnc2c1cnn2Cc1ccccc1 | -20.2% | 29.1 µM [falling, single point] | –
CC1=NN(c2cccc(Cl)c2)C(=O)C12CC(C)=C(C)CS2 (stereo not given) | 110% | 1.64 µM [rising, partial curve] | 18.4 µM [rising, partial curve]
c1ccc(-c2nc[nH]c2-c2ccccc2)cc1 | 3.09% and 23.6% | 206 nM [rising, full curve] and 18.4 µM [rising, single point] | –
COc1ccc(C)cc1-n1nnnc1SCc1nc2ccccc2s1 | -28.4% | 9.2 µM [falling, partial curve] | –
COc1ccc(/C=N/NC(=O)c2cccc([N+](=O)[O-])c2)cc1OC(=O)c1ccccc1 | 3.72% | 2.59 µM [rising, partial curve] | 0.291 µM [rising, full curve, poor fit]
O=C(NCCc1c[nH]c2ccccc12)c1ccc(S(=O)(=O)NCc2ccco2)cc1 | -74% | 29.1 µM [falling, single point] | –
COc1cccc(NC(=O)COc2coc(CN3CCN(c4ccccc4)CC3)cc2=O)c1 | 10.3% | – | –
O=C(Nc1cccc(C(F)(F)F)c1)c1cc2c(s1)-c1ccccc1OC2 | -14.7% | 29.1 µM [falling, single point] | –
CC(C)c1nc(SCC(=O)Nc2cccc(S(N)(=O)=O)c2)n[nH]1 | -37.1% | – | 29.1 µM [falling, single point]
Cc1ccc(NC(=O)Nc2cccc(Cl)c2)c(C(=O)O)c1 | -45.8% | – | 29.1 µM [falling, single point]
CCN(CC)CCN(C(=O)c1ccc(N2C(=O)CCC2=O)cc1)c1nc2cc3c(cc2s1)OCO3 | -54.1% | 0.0517 µM [falling, full curve, poor fit] | 2.91 µM [falling, partial curve, poor fit]
Cn1cc([N+](=O)[O-])c(C(=O)NCc2ccco2)n1 | 11.2% | – | –
Cn1cnc2c1c(=O)n(Cc1c(Cl)cccc1Cl)c(=O)n2C | -7.43% | – | –
O=C(CSc1nnc(-c2cccs2)n1-c1ccccc1)NCC1CCCO1 (stereo not given) | 11.4% | 29.1 µM [rising, single point] | –
Cn1c(=O)c(C(=O)CN2CCCCCC2)c(N)n(Cc2ccccc2)c1=O | -1.29% | 0.116 µM [falling, full curve] | 0.082 µM [falling, full curve]
COc1cc(C(=O)NCC2(N(C)C)CCCCC2)ccc1OCc1ccccc1 | 34.2% | 16.4 µM [rising, partial curve] | 7.31 µM [rising, partial curve, poor fit]
O=C(Cn1cc(C(=O)C2CC2)c2ccccc21)Nc1ccc(F)cc1 | 33% | – | –
COc1ccc(NC(=S)NC(NC(=O)C(C)C)C(Cl)(Cl)Cl)c([N+](=O)[O-])c1 (stereo not given) | -22.2% | 14.6 µM [falling, partial curve, poor fit] | –
